Data reported in doi:10.1101/2020.05.04.076208.

The chains behind the UniProt entries cited, without tags or fusion partners. Where a name states a change or a piece, a line headed by the entry shows the natural chain unless it says otherwise. Residues count along the entry.
UniProt Q8R550: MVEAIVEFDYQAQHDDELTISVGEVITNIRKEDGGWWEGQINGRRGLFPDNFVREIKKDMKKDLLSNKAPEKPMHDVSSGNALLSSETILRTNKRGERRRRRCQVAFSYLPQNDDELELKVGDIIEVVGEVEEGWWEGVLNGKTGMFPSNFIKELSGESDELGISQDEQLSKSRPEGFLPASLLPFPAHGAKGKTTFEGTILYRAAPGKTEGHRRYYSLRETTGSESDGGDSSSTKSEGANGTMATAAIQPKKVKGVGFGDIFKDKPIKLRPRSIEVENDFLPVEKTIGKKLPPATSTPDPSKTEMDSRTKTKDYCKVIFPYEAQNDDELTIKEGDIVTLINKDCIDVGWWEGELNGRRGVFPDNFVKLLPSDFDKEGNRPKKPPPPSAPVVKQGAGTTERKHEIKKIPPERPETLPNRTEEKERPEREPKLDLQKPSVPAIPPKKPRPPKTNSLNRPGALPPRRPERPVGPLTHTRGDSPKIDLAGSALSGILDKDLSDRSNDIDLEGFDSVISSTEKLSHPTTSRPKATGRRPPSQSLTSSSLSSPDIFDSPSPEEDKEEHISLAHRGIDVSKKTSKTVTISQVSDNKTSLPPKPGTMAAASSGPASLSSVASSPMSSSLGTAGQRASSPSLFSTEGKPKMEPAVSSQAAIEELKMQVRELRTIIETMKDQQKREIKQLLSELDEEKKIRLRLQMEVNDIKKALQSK
UniProt P08003, residues 21-638: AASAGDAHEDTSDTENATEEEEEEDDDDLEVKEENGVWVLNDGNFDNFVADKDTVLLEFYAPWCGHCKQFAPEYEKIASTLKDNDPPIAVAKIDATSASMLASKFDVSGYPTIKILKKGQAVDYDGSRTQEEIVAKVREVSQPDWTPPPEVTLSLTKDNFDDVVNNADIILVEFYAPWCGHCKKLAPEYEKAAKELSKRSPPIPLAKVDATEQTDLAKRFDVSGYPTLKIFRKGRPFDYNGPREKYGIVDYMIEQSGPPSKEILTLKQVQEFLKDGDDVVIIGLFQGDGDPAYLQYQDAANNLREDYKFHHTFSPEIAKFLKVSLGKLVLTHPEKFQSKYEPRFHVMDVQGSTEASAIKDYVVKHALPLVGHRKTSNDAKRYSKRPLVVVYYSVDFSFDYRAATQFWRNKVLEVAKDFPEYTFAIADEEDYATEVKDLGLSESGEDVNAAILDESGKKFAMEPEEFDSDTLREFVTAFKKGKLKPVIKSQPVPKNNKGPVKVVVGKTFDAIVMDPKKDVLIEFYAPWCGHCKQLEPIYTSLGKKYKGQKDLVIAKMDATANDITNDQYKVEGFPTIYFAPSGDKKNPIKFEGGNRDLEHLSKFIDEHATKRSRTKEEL

B1: Calnexin (protein, UniProt P35564 21-591)
chain: HDGHDDDAIDIEDDLDDVIEEVEDSKSKSDASTPPSPKVTYKAPVPTGEVYFADSFDRGSLSGWILSKAKKDDTDDEIAKYDGKWEVDEMKETKLPGDKGLVLMSRAKHHAISAKLNKPFLFDTKPLIVQYEVNFQNGIECGGAYVKLLSKTAELSLDQFHDKTPYTIMFGPDKCGEDYKLHFIFRHKNPKTGVYEEKHAKRPDADLKTYFTDKKTHLYTLILNPDNSFEILVDQSVVNSGNLLNDMTPPVNPSREIEDPEDRKPEDWDERPKIADPDAVKPDDWDEDAPSKIPDEEATKPEGWLDDEPEYIPDPDAEKPEDWDEDMDGEWEAPQIANPKCESAPGCGVWQRPMIDNPNYKGKWKPPMIDNPNYQGIWKPRKIPNPDFFEDLEPFKMTPFSAIGLELWSMTSDIFFDNFIISGDRRVVDDWANDGWGLKKAADGAAEPGVVLQMLEAAEERPWLWVVYILTVALPVFLVILFCCSGKKQSNAMEYKKTDAPQPDVKDEEGKEEEKNKRDEEEEEEKLEEKQKSDAEEDGVTGSQDEEDSKPKAEEDEILNRSPRNRKPRRE

What was measured:
[1] = biological target: GFP-SH3KBP1 C-terminal part (UniProt Q8R550); experiment: co-IP
[2] = biological target: GFP-SH3KBP1 deletion mutant without the C-terminus coiled-coil domain; experiment: co-IP

Row | Molecule | binding [1] | binding [2]
1 | Endoplasmic reticulum resident protein 72 (from UniProt P08003 21-638) | binds | –
2 | B1 | binds | binds

These are yes or no findings as the source states them, for the method shown. Binding seen in cells or lysates may run through a third protein. Binding can be weak; no strength is given.
